Molecules are shown by their SMILES.

The subject of the data set is artificial myocardial structure (cardiac organoid). Nature of the data set: contractile force-based cardiac toxicity assessment using the artificial myocardial structure. The settings on record: group treated with 100 nM. Type of data set: cell-based, human. An excerpt:
Furthermore, after additionally treating an artificial myocardial structure prepared by coculturing gelatin oil capsules and cardiomyocytes with various drugs, contractile forces of the drug-treated artificial myocardial structure were checked.

For `COC(=O)C1=C(C)NC(C)=C(C(=O)OC)C1c1ccccc1[N+](=O)[O-]` [Nifedipine], the beat rates result is on record as “changed into slow beat rates” and the contractile forces result is reported as “weakened”.

These data come from patent US12325867B2, “Organoid produced using carrier for cell culture, and method for evaluating drug toxicity using same” (Korea Research Institute of Chemical Technology, priority 2018, dated 2025).
